According to PubChem BioAssay AID192 (DTP/NCI, 2004):
The list is a part of this screen's results and no random one: it is rich in T/C values a quarter to a half above the control, in often repeated tests (any T/C) and in doses without a T/C. Further doses and runs are listed elsewhere. T/C: endpoint of the treated group in % of that of the vehicle group. Some doses have a count of surviving animals in place of a T/C: the source files T/C as zero there, which appears to mark a toxic dose or a test without result, not a measured value. Some survivor counts are full or nearly so, which does not show that the dose was tolerated: survival well below the control is almost never listed, so the zero probably covers shortened survival too. Survivors were counted at the toxicity check, usually on the fifth day, unless a day is given; later deaths do not show. Schedules are NCI's codes, read here as Q, the interval in days (D) or hours (H), X, the number of doses. Where survival is the endpoint, the PubChem record calls one and a half times the control and up active, and a quarter to a half above the control has no call in these data; cut-offs in other NCI protocols can differ. Some T/C values carry the count of animals alive at the toxicity check (mostly the fifth day); without a count, all were alive then. Some doses were run more than once; their values stand side by side, smallest first. Peptide text beside a SMILES is read from it. * marks the point of attachment. Cbz = O=C(OCc1ccccc1)*

Test system: BDF1 mice, B16 melanoma ip, median survival T/C
Assay: NCI In Vivo Anticancer Drug Screen. Data for tumor model B16 Melanoma (intraperitoneal) in B6D2F1 (BDF1) mice
Conditions: T/C endpoint: median survival time, higher T/C = longer survival
Procedure: The antitumor activity of compounds was measured in mice bearing transplantable tumors. Survival or tumor size were measured and the results are expressed as the measurement made in the treated group (T) divided by the measurement made in the vehicle treated control group (C). The tumor model used in this assay is B16 Melanoma (intraperitoneal) in B6D2F1 (BDF1) mice

[1] = dose: 100.0 mg/kg/injection, schedule: Q01DX009 (ip), vehicle: Klucel (hydroxypropylcellulose) (HPC)
[2] = dose: 200.0 mg/kg/injection, schedule: Q01DX009 (ip), vehicle: Klucel (hydroxypropylcellulose) (HPC)
[3] = dose: 25.0 mg/kg/injection, schedule: Q01DX009 (ip), vehicle: Klucel (hydroxypropylcellulose) (HPC)
[4] = dose: 50.0 mg/kg/injection, schedule: Q01DX009 (ip), vehicle: Klucel (hydroxypropylcellulose) (HPC)
[5] = dose: 400.0 mg/kg/injection, schedule: Q01DX009 (ip), vehicle: Klucel (hydroxypropylcellulose) (HPC)
[6] = dose: 400.0 mg/kg/injection, schedule: Q01DX009 (ip), vehicle: saline with Tween-80
[7] = dose: 200.0 mg/kg/injection, schedule: Q01DX009 (ip), vehicle: saline
[8] = dose: 400.0 mg/kg/injection, schedule: Q01DX009 (ip), vehicle: saline
[9] = dose: 1.56 mg/kg/injection, schedule: Q01DX009 (ip), vehicle: Klucel (hydroxypropylcellulose) (HPC)
[10] = dose: 12.5 mg/kg/injection, schedule: Q01DX009 (ip), vehicle: Klucel (hydroxypropylcellulose) (HPC)
[11] = dose: 25.0 mg/kg/injection, schedule: Q01DX009 (ip), vehicle: distilled water + Tween-80
[12] = dose: 50.0 mg/kg/injection, schedule: Q01DX009 (ip), vehicle: saline
[13] = dose: 100.0 mg/kg/injection, schedule: Q01DX009 (ip), vehicle: saline

## Cc1ccc(S(=O)(=O)NC(CSSCC(NS(=O)(=O)c2ccc(C)cc2)C(=O)OC(C)(C)C)C(=O)OC(C)(C)C)cc1 (stereo not drawn)
[1]
  survivor count: 9 of 10
[2]
  survivor count: 10 of 10

## OCCOCCN1CCN(CCCN2c3ccccc3Sc3ccc(C(F)(F)F)cc32)CC1
dose: 12.8 mg/kg/injection, schedule: Q01DX009 (ip), vehicle: saline
  survivor count: 10 of 10
dose: 1.5 micrograms/kg/injection, schedule: Q01DX009 (ip), vehicle: saline
  survivor count: 9 of 10

## CC(=O)C1CCC2C3CCC4=CC(=O)CC4(C)C3CCC12C (stereo not drawn)
dose: 400.0 mg/kg/injection, schedule: Q04DX003 (ip), vehicle: saline with Tween-80
  survivor count: 7 of 10

## CCCCN(C)/N=N/c1[nH]ncc1C(=O)OCC
dose: 400.0 mg/kg/injection, schedule: Q01DX009 (ip), vehicle: carboxymethylcellulose (CMC)
  survivor count: 6 of 6

## Cc1ncc(CNC(=O)N(CCCl)N=O)c(N)n1
[3]
  survivor count: 10 of 10
dose: 25.0 mg/kg/injection, schedule: Q01DX009 (ip), vehicle: suspension in saline
  survivor count: 10 of 10
[4]
  survivor count: 10 of 10
dose: 50.0 mg/kg/injection, schedule: Q01DX009 (ip), vehicle: suspension in saline
  survivor count: 8 of 10
[1]
  survivor count: 10 of 10
[2]
  survivor count: 1 of 10
[5]
  survivor count: 0 of 10

## CC(=O)c1cccc(NC2C(N)C(NC(=O)N(C)C)(C(C)O)C(C)(O)C2(O)COC(=O)c2c(C)cccc2O)c1 (stereo not drawn)
dose: 0.6 mg/kg/injection, schedule: Q01DX009 (ip), vehicle: saline with Tween-80
  T/C: 126 % of control [9 of 10 alive]
dose: 1.2 mg/kg/injection, schedule: Q01DX009 (ip), vehicle: saline with Tween-80
  T/C: 135 % of control
dose: 2.0 mg/kg/injection, schedule: Q01DX009 (ip), vehicle: Klucel (hydroxypropylcellulose) (HPC)
  T/C: 129 % of control [9 of 10 alive]
dose: 2.4 mg/kg/injection, schedule: Q01DX009 (ip), vehicle: saline with Tween-80
  T/C: 137 % of control
dose: 2.4 mg/kg/injection, schedule: Q01DX009 (ip), vehicle: saline
  T/C: 129 % of control
dose: 4.0 mg/kg/injection, schedule: Q01DX009 (ip), vehicle: Klucel (hydroxypropylcellulose) (HPC)
  survivor count: 5 of 10
dose: 4.8 mg/kg/injection, schedule: Q01DX009 (ip), vehicle: saline with Tween-80
  survivor count: 9 of 10
dose: 4.8 mg/kg/injection, schedule: Q01DX009 (ip), vehicle: saline
  survivor count: 10 of 10

## O=C(NC(Cc1ccccc1)C(=O)NC(Cc1ccc(O)cc1)C(=O)O)OCc1ccccc1 (stereo not drawn) (Cbz-Phe-Tyr-OH; configuration not given here)
dose: 200.0 mg/kg/injection, schedule: Q01DX009 (ip), vehicle: saline with Tween-80
  survivor count: 10 of 10
[6]
  survivor count: 10 of 10

## CCCCCCCCC(=O)N(C)OC
dose: 25.0 mg/kg/injection, schedule: Q04DX003 (ip), vehicle: saline with Tween-80
  survivor count: 10 of 10
dose: 50.0 mg/kg/injection, schedule: Q04DX003 (ip), vehicle: saline with Tween-80
  survivor count: 10 of 10
dose: 100.0 mg/kg/injection, schedule: Q04DX003 (ip), vehicle: saline with Tween-80
  survivor count: 10 of 10

## S=C=NCCc1ccccc1
dose: 100.0 mg/kg/injection, schedule: Q01DX009 (ip), vehicle: saline with Tween-80
  survivor count: 4 of 10

## CCNC(Cc1ccccc1)C1CCCO1 (stereo not drawn)
[7]
  survivor count: 0 of 10
[8]
  survivor count: 0 of 10

## CCC(C)(CC)OC(N)=O
[6]
  survivor count: 0 of 10
[8]
  survivor count: 8 of 10

## CCN(Cc1ccc(Cl)c(Cl)c1)c1ccc2nc(N)nc(N)c2c1C
[9]
  survivor count: 8 of 10
[10]
  survivor count: 8 of 10
[3]
  survivor count: 7 of 10
[11]
  survivor count: 9 of 10
[4]
  survivor count: 6 of 10
dose: 50.0 mg/kg/injection, schedule: Q01DX009 (ip), vehicle: distilled water + Tween-80
  survivor count: 8 of 10
[1]
  survivor count: 0 of 10
dose: 100.0 mg/kg/injection, schedule: Q01DX009 (ip), vehicle: distilled water + Tween-80
  survivor count: 3 of 10

## CN(CO)c1nc(N(C)CO)nc(N(C)CO)n1
[12]
  T/C: 146 % of control
[13]
  T/C: 129 % of control
  survivor count: 10 of 10
[7]
  survivor count: 7 of 10

## Oc1ccccc1C=NCC[N-]CCN=Cc1ccccc1O.[Cu+]
[9]
  survivor count: 10 of 10
dose: 3.13 mg/kg/injection, schedule: Q01DX009 (ip), vehicle: Klucel (hydroxypropylcellulose) (HPC)
  survivor count: 9 of 10
dose: 6.25 mg/kg/injection, schedule: Q01DX009 (ip), vehicle: Klucel (hydroxypropylcellulose) (HPC)
  survivor count: 2 of 10

## Cc1c(Cl)cccc1NC(=O)c1ccc(Cl)cc1
dose: 300.0 mg/kg/injection, schedule: Q01DX009 (ip), vehicle: Klucel (hydroxypropylcellulose) (HPC)
  survivor count: 9 of 10

## COC(=O)/C=C/c1ccc(OC)cc1
dose: 100.0 mg/kg/injection, schedule: Q04DX003 (ip), vehicle: Klucel (hydroxypropylcellulose) (HPC)
  survivor count: 10 of 10

## CC(=O)C(Cl)C(=O)c1c(C)[nH]n(-c2ccccc2)c1=O (stereo not drawn)
[1]
  survivor count: 8 of 10
[2]
  survivor count: 6 of 10
[5]
  survivor count: 0 of 10

## Cn1ncc2c(N)ncnc21
[10]
  survivor count: 9 of 10
[3]
  survivor count: 10 of 10
[4]
  survivor count: 10 of 10
[1]
  survivor count: 3 of 10

## C=C1C(=O)OC2CC1CCC1(C)OC1CCC(C)=CCCC2(C)O (stereo not drawn)
dose: 3.7 mg/kg/injection, schedule: Q01DX009 (ip), vehicle: Klucel (hydroxypropylcellulose) (HPC)
  survivor count: 10 of 10

## COc1cc(O)c2c(c1)C(=O)c1cc3c(c(O)c1C2=O)CC(OC)C(C)(O)C3=O (stereo not drawn)
dose: 200.0 mg/kg/injection, schedule: Q01DX009 (ip), vehicle: other
  survivor count: 10 of 10
dose: 400.0 mg/kg/injection, schedule: Q01DX009 (ip), vehicle: other
  survivor count: 10 of 10

## CC(C(=O)O)C(=O)O.[NH-]CC[NH-].[Pt+2]
dose: 50.0 mg/kg/injection, schedule: Q01DX009 (ip), vehicle: water
  survivor count: 10 of 10

## O=c1oc(-c2ccccc2I)nc2ccccc12
[5]
  survivor count: 0 of 10

## COc1cc(/C=C/C(N)=O)cc(OC)c1OC
[12]
  survivor count: 10 of 10
[8]
  survivor count: 9 of 10

## CC(=O)C(C)(NCc1ccccc1)c1ccccc1 (stereo not drawn)
[2]
  survivor count: 10 of 10
[5]
  survivor count: 7 of 10

## C[Si](C)(C)Cc1ccccc1
[5]
  survivor count: 10 of 10

## Nc1cc2c(c[n+](CCCCCCCC[n+]3cc4c5ccccc5c(N)cc4c4ccccc43)c3ccccc23)c2ccccc12
dose: 1.56 mg/kg/injection, schedule: Q01DX009 (ip), vehicle: distilled water + Tween-80
  T/C: 140 and 144 % of control [9 of 10 alive]
dose: 3.12 mg/kg/injection, schedule: Q01DX009 (ip), vehicle: distilled water + Tween-80
  T/C: 135 % of control
dose: 5.0 mg/kg/injection, schedule: Q01DX009 (ip), vehicle: saline with Tween-80
  T/C: 136 % of control
dose: 6.25 mg/kg/injection, schedule: Q04DX003 (ip), vehicle: distilled water + Tween-80
  T/C: 126 % of control
dose: 12.5 mg/kg/injection, schedule: Q04DX003 (ip), vehicle: distilled water + Tween-80
  T/C: 135 % of control [8 of 10 alive]
dose: 20.0 mg/kg/injection, schedule: Q01DX009 (ip), vehicle: distilled water + Tween-80
  survivor count: 10 of 10
[11]
  survivor count: 10 of 10
dose: 50.0 mg/kg/injection, schedule: Q04DX003 (ip), vehicle: distilled water + Tween-80
  survivor count: 6 of 10
